According to PMC12374808:
No constants are given. Whether binding was seen depends on the method and setting. Binding seen in cells or lysates may run through a third protein. Some entries that bind do so weakly or less than the wild type. Values belong to the molecule of their own block, whether it stands above or below them.

Amino acid sequences for entries named in this document (tags omitted). Residues count along the entry.
UniProt P16070, residues 21-742: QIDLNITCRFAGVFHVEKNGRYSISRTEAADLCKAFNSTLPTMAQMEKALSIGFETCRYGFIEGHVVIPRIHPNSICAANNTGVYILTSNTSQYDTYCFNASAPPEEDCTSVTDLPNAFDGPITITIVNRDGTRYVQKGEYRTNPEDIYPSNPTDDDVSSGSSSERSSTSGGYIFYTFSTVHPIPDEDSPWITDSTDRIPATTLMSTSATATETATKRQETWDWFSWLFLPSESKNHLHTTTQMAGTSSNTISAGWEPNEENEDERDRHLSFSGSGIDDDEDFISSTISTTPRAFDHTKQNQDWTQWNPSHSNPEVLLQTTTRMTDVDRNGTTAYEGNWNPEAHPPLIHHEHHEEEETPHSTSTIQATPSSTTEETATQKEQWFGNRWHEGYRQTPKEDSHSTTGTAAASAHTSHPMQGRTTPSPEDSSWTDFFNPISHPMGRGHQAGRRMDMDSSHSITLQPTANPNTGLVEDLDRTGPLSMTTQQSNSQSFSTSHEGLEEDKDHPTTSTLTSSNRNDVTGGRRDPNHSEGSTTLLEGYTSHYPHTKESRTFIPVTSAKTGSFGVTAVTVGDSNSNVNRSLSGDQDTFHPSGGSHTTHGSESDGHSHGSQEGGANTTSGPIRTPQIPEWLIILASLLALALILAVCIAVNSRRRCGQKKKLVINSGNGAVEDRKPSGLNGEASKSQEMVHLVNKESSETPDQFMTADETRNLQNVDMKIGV
UniProt P98066, residues 18-277: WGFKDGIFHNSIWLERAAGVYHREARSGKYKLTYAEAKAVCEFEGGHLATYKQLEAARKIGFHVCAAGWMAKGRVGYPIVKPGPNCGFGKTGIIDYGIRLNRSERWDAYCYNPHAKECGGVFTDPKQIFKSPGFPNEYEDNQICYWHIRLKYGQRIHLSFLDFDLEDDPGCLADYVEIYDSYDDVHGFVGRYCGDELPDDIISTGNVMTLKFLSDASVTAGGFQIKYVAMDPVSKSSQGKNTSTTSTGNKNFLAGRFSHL

Key:
[1] = target: CD44 (human (endogenous in A549)) (UniProt P16070); assay: co-IP; A549 cells treated with 200 ng/ml rhTSG6 for 2 hours; lysates incubated with anti-CD44 (sc-9960) or normal IgG for 16 h at 4 °C, then protein G agarose for 4 h; washed four times with lysis buffer (0.5% Triton X-100, 20 mM Tris pH 7.5); immunoblot for TSG6; only the binder purified
[2] = target: CD44 (human (endogenous in A549)) (UniProt P16070); assay: co-IP; A549 cells with or without 200 ng/ml rhTSG6 for 2 hours; lysates incubated with anti-CD44 (sc-9960) or normal IgG for 16 h at 4 °C, then protein G agarose for 4 h; washed four times with lysis buffer; immunoblot for endogenous TGFβR1 and EGFR

binding [1]: binds
Molecule: recombinant human TSG6 (rhTSG6) (from UniProt P98066 18-277) (ligand)

binding [2]: binds
Molecule: EGFR (from UniProt P00533 25-1210) (receptor)

binding [2]: binds
B1: TGFβR1 (receptor, UniProt P36897 34-503)
chain: LQCFCHLCTKDNFTCVTDGLCFVSVTETTDKVIHNSMCIAEIDLIPRDRPFVCAPSSKTGSVTTTYCCNQDHCNKIELPTTVKSSPGLGPVELAAVIAGPVCFVCISLMLMVYICHNRTVIHHRVPNEEDPSLDRPFISEGTTLKDLIYDMTTSGSGSGLPLLVQRTIARTIVLQESIGKGRFGEVWRGKWRGEEVAVKIFSSREERSWFREAEIYQTVMLRHENILGFIAADNKDNGTWTQLWLVSDYHEHGSLFDYLNRYTVTVEGMIKLALSTASGLAHLHMEIVGTQGKPAIAHRDLKSKNILVKKNGTCCIADLGLAVRHDSATDTIDIAPNHRVGTKRYMAPEVLDDSINMKHFESFKRADIYAMGLVFWEIARRCSIGGIHEDYQLPYYDLVPSDPSVEEMRKVVCEQKLRPNIPNRWQSCEALRVMAKIMRECWYANGAARLTALRIKKTLSQLSQQEGIKM
